Values of other authors, collected in patent US20070123488A1, “Pharmaceutical composition comprising a zinc-hyaluronate complex for the treatment of multiple sclerosis” (RICHTER GEDEON VEGYESZETI GYAR RT., priority 2003, published 2007).
Some entries share one result that the patent states for a list of compounds.

Amino acid sequences for entries named in this document (tags omitted). A change or cut given only in a name is not applied to a line headed by its entry.
UniProt P01574: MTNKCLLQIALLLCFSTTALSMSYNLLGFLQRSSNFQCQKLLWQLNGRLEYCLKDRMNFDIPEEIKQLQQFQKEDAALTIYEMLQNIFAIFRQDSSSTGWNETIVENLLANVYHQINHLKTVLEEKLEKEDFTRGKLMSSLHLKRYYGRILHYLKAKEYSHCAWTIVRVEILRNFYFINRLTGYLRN

Tested on: multiple sclerosis
Settings: relapsing-remitting form of multiple sclerosis; cited from earlier work

Row | Molecule | Reduction of the frequency of relapses
1 | glatiramer acetate [Copaxone] | 20-30%
2 | interferon beta-1b (protein, UniProt P01574 22-187, looked up, variant C17S, lacks N-terminal Met; non-glycosylated) Interferon beta: MSYNLLGFLQRSSNFQSQKLLWQLNGRLEYCLKDRMNFDIPEEIKQLQQFQKEDAALTIYEMLQNIFAIFRQDSSSTGWNETIVENLLANVYHQINHLKTVLEEKLEKEDFTRGKLMSSLHLKRYYGRILHYLKAKEYSHCAWTIVRVEILRNFYFINRLTGYLRN | 20-30%
